This is an account of results in PubChem BioAssay AID2685 (National Center for Advancing Translational Sciences (NCATS), 2010).

The assay in a line: qHTS Assay for Lipid Storage Modulators in Drosophila S3 Cells.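 On cell number change: cells counted by Cell Tracker Red CMTPX staining in the red channel.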 As to conditions: BODIPY lipid droplet fluorescence, 18-24 h; for cell number change: measured here: cell count max response, cells fed with added oleic acid. The essentials: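 Laser-scanning cytometry quantifies lipid droplet accumulation (500–530 nm total intensity; droplet/cell object ratio) in oleic acid-fed (400 uM added) Drosophila S3 cells treated with a concentration series. 20 uM Triacsin C defined 100% inhibition.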

Where [1] appears, read: measured here: cell number channel AC50, cells fed with added oleic acid.
Setting [2] is: measured here: lipid fluorescence (Fed channel) AC50, cells fed with added oleic acid.

The other results are listed elsewhere or left out. Further columns of the screen follow, without active or inactive calls. Compounds called inactive in the main read-out are mostly missing here. Words in brackets tell the shape of the fitted curve; partial curves, single points and poor fits give uncertain potencies.

Regarding `CC1(C)N=C(N)NC(Nc2cccc(Br)c2)=N1`, the cell number change was -41.7%. Moreover, the AC50 (as a rule, the midpoint of the concentration-response curve, whichever way the signal moves) under setting [1] was 0.92 µM [falling, full curve]. Besides, under setting [2], the AC50 is 16.4 µM [falling, partial curve].
In the case of `CC(=O)NCC(=O)NC1(C(=O)NC2CCCC2)CCCCC1`, the cell number change is -20.6%. Besides, the AC50 under setting [1] was 6.51 µM [falling, single point].
As for `COC(=O)C1=C(NC(=O)c2ccc(C)c(C)c2)CCS1`, the cell number change was -17.2%. For the same compound, the AC50 under setting [2] is 29.1 µM [rising, single point].
In the case of `Cc1cc2nc(-c3cccc(NC(=O)c4ccc(Br)o4)c3)oc2cc1C`, under setting [2], the AC50 was 0.651 µM [falling, single point].
Turning to `NC(=O)C1(S(=O)(=O)c2ccccc2)CCCCC1`, the cell number change is -13.3%.
On the same count and under the same terms, for `CCCCc1nc2ccccc2c(=O)n1NC(=O)c1c(O)c2cccc3c2n(c1=O)CC3` the value was 3.31%.
On to `COc1ccc(C(=O)Nc2ccc(Br)cn2)cc1S(=O)(=O)N1CCOCC1`, for which the cell number change is -8.68%. Also, under setting [2], the AC50 is 29.1 µM [rising, single point].
`Cc1ccc(C(=O)NCCCN2CCOCC2)c(C)c1`: the cell number change was -2.12%. The AC50 under setting [2] is 0.58 µM [falling, single point].
Consider `COc1cc(C=O)ccc1OCCCCOc1ccccc1[N+](=O)[O-]`, for which the cell number change came to 19.2%. The half-maximal activity concentration (AC50) under setting [2] is 7.31 µM [rising, full curve, poor fit].
In the case of `COc1ccc(N=C2SCC(c3ccc([N+](=O)[O-])cc3)=NN2CCO)cc1`, the cell number change was -0.727%. Also, under setting [1], the AC50 is 0.461 µM [falling, single point]. For the same compound, the AC50 under setting [2] is 0.461 µM [falling, single point].
For `CC(=O)N1CCC(N(CCN2CCOCC2)C(=S)Nc2cccc(C)c2)CC1`, the cell number change was -3.95%. For the same compound, the AC50 under setting [2] was 4.61 µM [falling, full curve, poor fit].
Regarding `CCOc1cc(N2CCOCC2)c(OCC)cc1NC(=O)COC(=O)/C=C/c1ccc(OC(F)F)cc1`, the cell number change was 11.8%.
Turning to `COc1cccc(Nc2nc3cc(OC)ccc3cc2C#N)c1`, the cell number change turned out to be 79.6%. Besides, the AC50 under setting [1] is 13 µM [rising, partial curve]. For the same compound, the AC50 under setting [2] was 4.11 µM [rising, partial curve].
Take `C/C=C\C=C/C(=O)Nc1cccc(C2=NOC3(C2)C[C@@H](C(N)=O)N(C(=O)/C=C/C=C\C)C3)c1` (some centres undefined): the cell number change came out at 17.6%. Besides, under setting [2], the AC50 is 29.1 µM [rising, single point].
On to `C=C(C)Cn1c(SCC(=O)N/N=C/c2cccc(O)c2)nc2ccccc2c1=O`, for which the AC50 under setting [2] was 0.0058 µM [falling, full curve, poor fit].
Turning to `COc1cc2c(cc1OC)C(c1ccccc1N)=NCC2`, the cell number change stood at 15.9%. The AC50 under setting [1] is 5.8 µM [falling, single point]. For the same compound, under setting [2], the AC50 is 4.61 µM [falling, single point].
For `COc1ccc(CC(=O)N2CCC(Nc3nc4ccccc4n3Cc3ccc(F)cc3)CC2)cc1`, the cell number change was -29%. The AC50 under setting [2] was 16.4 µM [falling, single point].
Consider `CSc1ccc(Cn2nnc(C(=O)NCc3ccccc3)c2N)cc1`, for which the cell number change was found to be 34.8%. Further, the AC50 under setting [1] was 0.206 µM [rising, full curve, poor fit]. Further, under setting [2], the AC50 is 0.58 µM [rising, single point].
For `O=C(CN1CCOCC1)Nc1ccccc1Cl`, the cell number change was -44.9%. Also, the AC50 under setting [1] is 2.91 µM [falling, full curve]. The AC50 under setting [2] is 2.59 µM [falling, full curve].
As for `N#CC1=C(N)C(C#N)(C#N)C(c2ccncc2)C2CN(C(=O)OCc3ccccc3)CC=C12` (centres undefined), the cell number change was -24.8%. For the same compound, the AC50 under setting [2] was 6.51 µM [falling, partial curve].
Consider `CCC1S/C(=C(\C#N)C(=O)NCc2ccco2)N(c2ccc(Br)cc2)C1=O` (centres undefined), for which the cell number change was found to be 30.4%. Also, the AC50 under setting [1] is 11.6 µM [rising, partial curve]. For the same compound, the AC50 under setting [2] was 6.51 µM [rising, single point].
Turning to `CNC(=O)COc1coc(CN2CCN(c3ccc(OC)cc3)CC2)cc1=O`, the cell number change is 14.4%. Also, the AC50 under setting [2] is 6.51 µM [rising, partial curve, poor fit].
Regarding `N#Cc1c(-c2cccc(Cl)c2)[nH]c(=S)[nH]c1=O`, the cell number change turned out to be 10.5%. In addition, the AC50 under setting [2] is 0.58 µM [rising, single point].
`COc1ccc(CCn2c(N)c(S(=O)(=O)c3cccs3)c3nc4ccccc4nc32)cc1OC`: the cell number change is -19.9%. Also, the AC50 under setting [1] is 0.231 µM [falling, full curve, poor fit].
For `CCOC(=O)N1C2=NC(C(=O)OC)=C(C(=O)OC)[C@@H]3Nc4ccccc4[C@]23C[C@H]1C(=O)OC`, the cell number change is -21.4%. Also, the AC50 under setting [2] was 6.51 µM [falling, single point].
`COC(=O)C(C)NC(=O)C(C)NC(=O)OCc1ccccc1` (centres undefined): the cell number change was -111%. Moreover, under setting [1], the AC50 was 29.1 µM [falling, single point].
Consider `CN(C)/C=N/c1cc(=O)n(C)c(=O)n1CC1CC1`, for which the cell number change is 19.2%. In addition, the AC50 under setting [2] is 14.6 µM [rising, partial curve].
In the case of `CC(C)(C)CN1CCNC(=O)C1CC(=O)NCCc1ccccc1F` (centres undefined), the cell number change is 3.11%. Further, the AC50 under setting [2] was 0.0411 µM [falling, full curve, poor fit].
As for `C=CCS(=O)(=O)N1CCCC(C(=O)c2cccc(Cl)c2)C1` (centres undefined), the cell number change amounted to 8.97%.
Regarding `COC(=O)c1ccc(C23CC4(C2)[C@H](CN(Cc2ccc(-c5ccccc5)cc2)[C@@H]4c2ccccc2)C3c2ccc(Cl)nc2)cc1` (some centres undefined), the cell number change was determined as 12%. The AC50 under setting [2] is 8.2 µM [rising, partial curve, poor fit].
As to `O=C(Cn1c(COc2ccccc2)nc2ccccc21)Nc1cc(Cl)ccc1Cl`, the cell number change is -23.9%. Under setting [1], the AC50 is 0.651 µM [falling, full curve, poor fit].
Consider `O=C(O)Cn1c(=O)c2c3c(sc2n(Cc2ccc(F)cc2)c1=O)CCCC3`, for which the cell number change came to 9.74%. Moreover, the AC50 under setting [2] was 0.92 µM [falling, single point].
Consider `COC(=O)Cn1cnc2scc(-c3ccc(C)c(C)c3)c2c1=O`, for which the cell number change is 5.07%. Moreover, the AC50 under setting [2] was 0.058 µM [rising, full curve, poor fit].
Regarding `CCSc1nc2c(c(=O)[nH]1)C(C(C)C)C(C#N)=C(N)O2` (centres undefined), the cell number change is 19.5%. In addition, under setting [2], the AC50 was 0.13 µM [rising, full curve].
Take `O=C(COC(=O)CNC(=O)c1ccc([N+](=O)[O-])o1)Nc1ncc(C(F)(F)F)cc1Cl`: the cell number change was -5.56%. Under setting [2], the AC50 is 1.84 µM [falling, single point].
With `CN(C(=O)CSc1nnc(-c2ccc(OC(F)F)cc2)n1N)C1CCS(=O)(=O)C1` (centres undefined), the cell number change is -28%. Further, the AC50 under setting [2] is 0.259 µM [falling, full curve].
As to `O=[N+]([O-])c1ccc(N2CCNCC2)c(S(=O)(=O)N2CCOCC2)c1`, the cell number change is -1.66%. Besides, under setting [2], the AC50 is 0.731 µM [falling, single point].
As to `O=C(OCc1nnc(-c2ccccc2)o1)c1cccc(S(=O)(=O)N2CCOCC2)c1`, the cell number change came out at 133%. In addition, the AC50 under setting [1] is 29.1 µM [rising, single point]. Under setting [2], the AC50 is 29.1 µM [rising, single point].
As for `CC(=O)N1CCN(C(=O)c2cccc(S(=O)(=O)N3CCN(c4ccccc4)CC3)c2)CC1`, the cell number change was -34.3%. Under setting [1], the AC50 was 29.1 µM [falling, single point]. Also, the AC50 under setting [2] was 0.411 µM [falling, full curve, poor fit].
As for `CCOC(=O)c1[nH]c(C)c(C(=O)OCc2ccccc2F)c1C`, the cell number change came to 13.8%.
Still for that read-out and setting: the result for `O=C(Nc1cccnc1Cl)c1cccc(S(=O)(=O)N2CCOCC2)c1` reads 4.7%.
Turning to `Cc1cc(O)cc(O)c1C=NCc1ccco1`, the cell number change was -52.1%. Besides, under setting [1], the AC50 was 29.1 µM [falling, single point]. In addition, under setting [2], the AC50 is 29.1 µM [falling, single point].
On to `CCN=C1SC(CC(=O)NC(N)=O)C(=O)N1CC` (centres undefined), for which the cell number change was -6.82%. Under setting [2], the AC50 is 2.91 µM [falling, partial curve].
With `COc1ccccc1CC(NC(C)=O)C(=O)NC1CCN(C(=O)Nc2cccc(F)c2)CC1` (centres undefined), the cell number change was -4.03%. Further, the AC50 under setting [2] is 14.6 µM [falling, partial curve, poor fit].
As for `COc1ccc(C2c3c(ncn(CCN4CCOCC4)c3=N)Oc3ccc4ccccc4c32)cc1` (centres undefined), the cell number change was -9.76%. The AC50 under setting [1] was 1.03 µM [rising, partial curve]. Also, under setting [2], the AC50 is 2.31 µM [rising, partial curve].
For `Cc1cc(O)c(C(=O)/C=C/c2ccccc2Br)c(=O)o1`, the AC50 under setting [2] was 6.51 µM [falling, partial curve, poor fit].
Regarding `NS(=O)(=O)c1ccc(NC(=O)CSc2ncnc3ccccc23)cc1`, the cell number change was -29.4%. Moreover, the AC50 under setting [1] was 2.91 µM [falling, full curve, poor fit]. The AC50 under setting [2] is 2.31 µM [falling, full curve].
Regarding `O=C(NCCSCc1c(F)cccc1Cl)c1ccco1`, the cell number change was -38.4%. The AC50 under setting [1] was 9.2 µM [falling, partial curve, poor fit]. Further, under setting [2], the AC50 was 32.6 µM [falling, single point].
Take `COCCN(CCOC)C(=O)c1ccc(NS(=O)(=O)c2ccc3c(c2)OCCO3)cc1`: the cell number change was 13.6%. Besides, the AC50 under setting [2] was 32.6 µM [rising, single point].
For `COC(=O)c1cc(OC)c(OC)cc1NC(=S)N1CCN(c2ccccc2)CC1`, the cell number change turned out to be 104%. Moreover, the AC50 under setting [1] was 1.46 µM [rising, partial curve]. Further, under setting [2], the AC50 is 0.259 µM [rising, partial curve].
With `CCCOC(=O)c1ccc(NC(=O)c2cn(CC)c3nc(C)ccc3c2=O)cc1`, the cell number change is -7.89%.
On to `Cc1c(C(=O)NC(Cc2ccccc2)c2nc3ccccc3[nH]2)cccc1[N+](=O)[O-]` (centres undefined), for which the cell number change was -3.2%. Moreover, the AC50 under setting [2] is 23.1 µM [rising, partial curve].
For the compound `NS(=O)(=O)c1ccc(N2CCOCC2)c(C(=O)NCCCSc2ccccc2)c1`, under setting [2], the AC50 was 14.6 µM [falling, partial curve, poor fit].
On to `COc1ccc(CCNC(=O)CCCOc2cccc(C)c2C)cc1OC`, for which the AC50 under setting [2] was 7.31 µM [falling, partial curve].
As to `NS(=O)(=O)c1ccc(NC(=O)Cn2ncc3c2-c2ccccc2OC3)cc1`, the cell number change is -1.22%. Besides, the AC50 under setting [1] was 5.8 µM [falling, partial curve]. Also, the AC50 under setting [2] is 1.03 µM [falling, full curve].
As for `CC(C)Oc1ccc(C2NC(=O)c3ccccc3O2)cc1` (centres undefined), the cell number change is 20.2%.
